According to publication PMC5689726:
Results are given in words; binding and its absence hold for the method and conditions named. Binding seen in cells or lysates may run through a third protein. Some entries that bind do so weakly or less than the wild type.

Chains of the proteins cited; added tags and fusions are not shown.
UniProt Q9NPD8: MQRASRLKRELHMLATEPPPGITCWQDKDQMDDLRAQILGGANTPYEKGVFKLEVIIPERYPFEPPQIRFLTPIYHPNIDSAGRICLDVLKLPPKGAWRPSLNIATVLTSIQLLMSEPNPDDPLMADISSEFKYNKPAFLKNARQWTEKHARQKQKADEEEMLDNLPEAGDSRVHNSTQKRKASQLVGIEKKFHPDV
UniProt P42685: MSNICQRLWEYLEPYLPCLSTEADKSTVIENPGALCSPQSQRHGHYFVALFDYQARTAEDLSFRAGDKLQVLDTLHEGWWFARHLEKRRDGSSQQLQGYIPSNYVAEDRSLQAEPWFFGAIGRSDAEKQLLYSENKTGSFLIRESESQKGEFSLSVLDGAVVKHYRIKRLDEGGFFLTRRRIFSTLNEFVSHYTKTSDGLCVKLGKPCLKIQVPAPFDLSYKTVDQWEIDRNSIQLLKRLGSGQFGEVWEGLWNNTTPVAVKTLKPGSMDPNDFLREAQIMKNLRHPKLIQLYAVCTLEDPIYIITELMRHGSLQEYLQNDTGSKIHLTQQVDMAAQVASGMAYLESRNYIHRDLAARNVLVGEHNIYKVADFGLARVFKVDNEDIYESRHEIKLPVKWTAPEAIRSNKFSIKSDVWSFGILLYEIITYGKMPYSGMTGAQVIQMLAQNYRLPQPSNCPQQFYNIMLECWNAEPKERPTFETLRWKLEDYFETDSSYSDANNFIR

Legend:
[1] = target: BRCA1 (human (endogenous in MCF10A)) (UniProt P38398); experiment: co-IP; lysates from control or Rak-depleted (siRNA) MCF10A cells immunoprecipitated with an anti-BRCA1 antibody or a mouse IgG, western blot; BRCA1 levels normalized before pull-down
[2] = target: BRCA1 Y1552F (HA-tagged), expressed in HCC1937 cells (human) (UniProt P38398); experiment: co-IP; lysates from HCC1937 cells expressing wild-type or Y1552F BRCA1 immunoprecipitated with an anti-HA antibody, western blot with an anti-UBE2T antibody; BRCA1 levels normalized before pull-down
[3] = target: HA-BRCA1 wild-type (human) (UniProt P38398); experiment: co-IP; HA-BRCA1 WT or deletion mutants transfected into 293T cells, pulled down with an anti-HA antibody, western blot with an anti-Rak antibody
[4] = target: BRCA1 (human (endogenous in MCF10A)) (UniProt P38398); experiment: co-IP; lysates from MCF10A cells (modified RIPA buffer) immunoprecipitated with an anti-Rak or anti-BRCA1 antibody, immunoblotted with an anti-BRCA1 or anti-Rak antibody; endogenous proteins

binding [1] | binding [2] | binding [3] | binding [4] | Substance
binds | binds | – | – | ubiquitin conjugating enzyme 2T (UBE2T) (from UniProt Q9NPD8 1-197)
– | – | binds | binds | Fyn-related kinase (Frk)/Rak (from UniProt P42685 1-505)
